# According to PubChem BioAssay AID256 (DTP/NCI, 2004):
# The list is a part of this screen's results and no random one: it is rich in T/C values a quarter to a half above the control, in often repeated tests (any T/C) and in doses without a T/C. Other doses and runs of a compound stand elsewhere. T/C is the treated group as % of the vehicle group. Some entries give survivors of the animals treated and no T/C: the source holds a T/C of zero for them, seemingly a mark for toxic or unscored doses. Some doses without a T/C left all or most animals alive at the check, yet need not have been tolerated: survival well below the control is almost never listed, so the zero probably covers shortened survival too. Survivors were counted at the toxicity check, usually on the fifth day, unless a day is given; later deaths do not show. Schedules are NCI's codes, read here as Q, the interval in days (D) or hours (H), X, the number of doses. For survival time, the PubChem record calls one and a half times the control and up active, and a quarter to a half above the control has no call in these data; cut-offs in other NCI protocols can differ. Some entries were tested several times; their values stand side by side, smallest first. Additions like (4×) stand for listed records that agree. Some T/C values are followed by the survivors on the day toxicity was checked, most often the fifth; without a count, all were alive then.
# Test system: CD2F1 mice, L1210 leukemia ip, survival T/C
# Experiment: NCI In Vivo Anticancer Drug Screen. Data for tumor model L1210 Leukemia (intraperitoneal) in CD2F1 (CDF1) mice
# Conditions: higher T/C = longer survival
# Outline: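 Activity against a transplanted murine tumor was judged by comparing the compound group with a vehicle group. The outcome in the treated animals was divided by that in the controls.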
# [1] = T/C endpoint: mean survival time, dose: 400.0 mg/kg/injection, schedule: Q04DX003 (ip), vehicle: saline with Tween-80
# [2] = T/C endpoint: mean survival time, dose: 200.0 mg/kg/injection, schedule: Q01DX001 (ip), vehicle: saline
# [3] = T/C endpoint: mean survival time, dose: 400.0 mg/kg/injection, schedule: Q01DX001 (ip), vehicle: saline
# [4] = T/C endpoint: mean survival time, dose: 50.0 mg/kg/injection, schedule: Q04DX002 (ip), vehicle: saline with Tween-80
# [5] = T/C endpoint: mean survival time, dose: 100.0 mg/kg/injection, schedule: Q01DX009 (ip), vehicle: saline with Tween-80
# [6] = T/C endpoint: mean survival time, dose: 200.0 mg/kg/injection, schedule: Q01DX009 (ip), vehicle: saline with Tween-80
# [7] = T/C endpoint: mean survival time, dose: 400.0 mg/kg/injection, schedule: Q01DX009 (ip), vehicle: saline with Tween-80
# [8] = T/C endpoint: mean survival time, dose: 300.0 mg/kg/injection, schedule: Q01DX009 (ip), vehicle: Klucel (hydroxypropylcellulose) (HPC)
# [9] = T/C endpoint: mean survival time, dose: 200.0 mg/kg/injection, schedule: Q04DX003 (ip), vehicle: saline with Tween-80
smiles,measurement,setting,value
CCC1(OC(=O)CN)C(=O)OCc2c1cc1n(c2=O)Cc2cc3ccccc3nc2-1 (stereo unspecified),T/C,"T/C endpoint: median survival time, dose: 3.75 mg/kg/injection, schedule: Q04HX004 (iv), vehicle: dextrose",126 % of control
same,T/C,"T/C endpoint: median survival time, dose: 3.75 mg/kg/injection, schedule: Q04HX004 (iv), vehicle: other",137 % of control
same,T/C,"T/C endpoint: median survival time, dose: 15.0 mg/kg/injection, schedule: Q04DX002 (ip), vehicle: saline",138 and 143 % of control
CC(C)=CC(C)OC(=O)N(C)C (stereo unspecified),survivor count,[1],1 of 3
CCOC(=O)C(C(=O)OCC)C1c2ccccc2C(=O)N(CCN(C)C)c2ccccc21 (stereo unspecified),survivor count,[2],0 of 6
same,survivor count,[3],0 of 6
N#Cc1ccc(CCl)cc1,survivor count,"T/C endpoint: mean survival time, dose: 200.0 mg/kg/injection, schedule: Q01DX009 (ip), vehicle: Klucel (hydroxypropylcellulose) (HPC)",3 of 3
CC1(C)C=CS1(=O)=O,survivor count,[3],2 of 6
CC(C)=[C-]N(C)C.[C-]#[O+].[C-]#[O+].[C-]#[O+].[C-]#[O+].[C-]#[O+].[Mn],survivor count,[4],0 of 3
C=C1CC2(CCC23COC(=O)C3=C)OC1=O (stereo unspecified),survivor count,"T/C endpoint: mean survival time, dose: 25.0 mg/kg/injection, schedule: Q01DX001 (ip), vehicle: other",0 of 3
same,survivor count,"T/C endpoint: mean survival time, dose: 50.0 mg/kg/injection, schedule: Q01DX001 (ip), vehicle: other",0 of 3
C#CCCCCCC#[C][Hg][C]#CCCCCCC#C.C#CCCCCCC#[C][Hg][C]#CCCCCCC#C,survivor count,"T/C endpoint: mean survival time, dose: 75.0 mg/kg/injection, schedule: Q01DX009 (ip), vehicle: saline",5 of 6
same,survivor count,"T/C endpoint: mean survival time, dose: 300.0 mg/kg/injection, schedule: Q01DX009 (ip), vehicle: saline",0 of 6
O=C(O)c1cccc(C(=O)O)c1C(=O)O.[NH-]C1CCCCC1[NH-].[Pt+2],T/C,"T/C endpoint: median survival time, dose: 25.0 mg/kg/injection, schedule: Q04DX003 (ip), vehicle: saline",132 % of control
same,T/C,"T/C endpoint: median survival time, dose: 50.0 mg/kg/injection, schedule: Q04DX003 (ip), vehicle: saline",137 % of control
O=C(COc1ccccc1)NC(=S)Nc1ccc(Cl)cc1Cl,survivor count,[5],6 of 6
same,survivor count,[6],1 of 6
same,survivor count,[7],0 of 6
COc1c(O)c2c(c3cc(C(=O)N4CCc5c4c(O)c(OC)c4[nH]c(C(=O)N6CC7CC78C6=CC(=O)c6[nH]cc(C)c68)cc54)[nH]c13)CCN2C(N)=O (stereo unspecified),T/C,"T/C endpoint: mean survival time, dose: 3.0 micrograms/kg/injection, schedule: Q01DX009 (ip), vehicle: other",138 % of control
same,T/C,"T/C endpoint: mean survival time, dose: 3.0 micrograms/kg/injection, schedule: Q04DX003 (ip), vehicle: other",128 % of control
same,T/C,"T/C endpoint: mean survival time, dose: 10.0 micrograms/kg/injection, schedule: Q01DX009 (ip), vehicle: other",136 % of control
same,T/C,"T/C endpoint: mean survival time, dose: 10.0 micrograms/kg/injection, schedule: Q04DX003 (ip), vehicle: other",144 % of control
same,T/C,"T/C endpoint: mean survival time, dose: 11.0 micrograms/kg/injection, schedule: Q01DX009 (ip), vehicle: other",130 % of control
same,T/C,"T/C endpoint: mean survival time, dose: 15.0 micrograms/kg/injection, schedule: Q04DX003 (ip), vehicle: other",125 % of control
same,T/C,"T/C endpoint: mean survival time, dose: 16.6 micrograms/kg/injection, schedule: Q01DX009 (ip), vehicle: other",131 % of control
same,T/C,"T/C endpoint: mean survival time, dose: 25.0 micrograms/kg/injection, schedule: Q01DX009 (ip), vehicle: other",133 % of control
same,T/C,"T/C endpoint: mean survival time, dose: 30.0 micrograms/kg/injection, schedule: Q04DX003 (ip), vehicle: other",134 % of control
same,T/C,"T/C endpoint: mean survival time, dose: 37.5 micrograms/kg/injection, schedule: Q01DX009 (ip), vehicle: other",137 % of control
same,T/C,"T/C endpoint: mean survival time, dose: 56.3 micrograms/kg/injection, schedule: Q01DX009 (ip), vehicle: other",131 % of control
same,T/C,"T/C endpoint: mean survival time, dose: 88.0 micrograms/kg/injection, schedule: Q01DX001 (ip), vehicle: other",125 % of control
same,survivor count,"T/C endpoint: mean survival time, dose: 100.0 micrograms/kg/injection, schedule: Q01DX009 (ip), vehicle: other",3 of 6
same,T/C,"T/C endpoint: mean survival time, dose: 133.0 micrograms/kg/injection, schedule: Q01DX001 (ip), vehicle: other",131 % of control
same,T/C,"T/C endpoint: mean survival time, dose: 200.0 micrograms/kg/injection, schedule: Q01DX001 (ip), vehicle: other",133 % of control
same,T/C,"T/C endpoint: mean survival time, dose: 300.0 micrograms/kg/injection, schedule: Q01DX001 (ip), vehicle: other",148 % of control
same,survivor count,"T/C endpoint: mean survival time, dose: 300.0 micrograms/kg/injection, schedule: Q04DX003 (ip), vehicle: other",1 of 6
same,T/C,"T/C endpoint: mean survival time, dose: 450.0 micrograms/kg/injection, schedule: Q01DX001 (ip), vehicle: other",143 % of control
O=C(CI)OCCCl,survivor count,"T/C endpoint: mean survival time, dose: 100.0 mg/kg/injection, schedule: Q01DX009 (ip), vehicle: other",2 of 6
same,survivor count,"T/C endpoint: mean survival time, dose: 200.0 mg/kg/injection, schedule: Q01DX009 (ip), vehicle: other",0 of 6
same,survivor count,"T/C endpoint: mean survival time, dose: 400.0 mg/kg/injection, schedule: Q01DX009 (ip), vehicle: other",0 of 6
CN(C)N=Nc1ccccc1C(=O)NCC(N)=O,T/C,"T/C endpoint: mean survival time, dose: 75.0 mg/kg/injection, schedule: Q01DX009 (ip), vehicle: Klucel (hydroxypropylcellulose) (HPC)",128 and 130 % of control
same,T/C,"T/C endpoint: mean survival time, dose: 150.0 mg/kg/injection, schedule: Q01DX009 (ip), vehicle: Klucel (hydroxypropylcellulose) (HPC)",135 and 140 % of control
same,T/C,[8],125 % of control
same,survivor count,[8],6 of 6
O=c1oc(-c2ccc3c(c2)OCO3)nc2ccccc12,survivor count,[1],5 of 6
CCOC(=O)Nc1cc2c(ncn2-c2ccccc2)c(N)n1,survivor count,"T/C endpoint: mean survival time, dose: 400.0 mg/kg/injection, schedule: Q01DX001 (ip), vehicle: Klucel (hydroxypropylcellulose) (HPC)",3 of 6
COC(=O)CCC(C)C1CCC2C3C(O)CC4CC(O)CCC4(C)C3CC(O)C12C (stereo unspecified),survivor count,[6],3 of 6
same,survivor count,[7],0 of 6
CCCCCCCCCCCCCCOc1ccc(OCCCCCCCCCCC)cc1,survivor count,"T/C endpoint: mean survival time, dose: 100.0 mg/kg/injection, schedule: Q01DX001 (ip), vehicle: saline with Tween-80",6 of 6
CC(=O)NC1=C(N2CC2)C(=O)C(NC(C)=O)=C(N2CC2)C1=O,T/C,"T/C endpoint: mean survival time, dose: 0.25 mg/kg/injection, schedule: Q01DX009 (ip), vehicle: saline",129 and 146 % of control
same,T/C,"T/C endpoint: mean survival time, dose: 1.0 mg/kg/injection, schedule: Q04DX003 (ip), vehicle: saline",147 % of control
same,survivor count,"T/C endpoint: mean survival time, dose: 4.0 mg/kg/injection, schedule: Q01DX007 (ip), vehicle: saline",6 of 6
same,survivor count,"T/C endpoint: mean survival time, dose: 4.0 mg/kg/injection, schedule: Q01DX009 (ip), vehicle: saline",6 of 6
COc1ccccc1C(=Nc1ccccc1)N(O)c1ccccc1,survivor count,"T/C endpoint: mean survival time, dose: 18.8 mg/kg/injection, schedule: Q01DX001 (ip), vehicle: saline",1 of 6
same,survivor count,"T/C endpoint: mean survival time, dose: 37.5 mg/kg/injection, schedule: Q01DX001 (ip), vehicle: saline",1 of 6
same,survivor count,"T/C endpoint: mean survival time, dose: 75.0 mg/kg/injection, schedule: Q01DX001 (ip), vehicle: saline",0 of 6
same,survivor count,"T/C endpoint: mean survival time, dose: 100.0 mg/kg/injection, schedule: Q01DX001 (ip), vehicle: saline",3 of 6
same,survivor count,[2],1 of 6
same,survivor count,[3],0 of 6
Cc1ccc(S(=O)(=O)C2C=CC=CC=C2)cc1,survivor count,[5],5 of 6
same,survivor count,[6],1 of 6
same,survivor count,[7],0 of 6
CCN(C(=O)Nc1ccc(OC)cc1)c1ccccc1,survivor count,[1],3 of 6
CS(=O)(=O)Nc1ccc(Nc2c3ccccc3nc3cc(Cl)ccc23)cc1,T/C,[5],133 % of control [5 of 6 alive]
same,survivor count,[6],6 of 6
same,survivor count,[9],3 of 6
same,T/C,"T/C endpoint: mean survival time, dose: 300.0 mg/kg/injection, schedule: Q04DX003 (ip), vehicle: saline with Tween-80",134 % of control [5 of 6 alive]
same,survivor count,"T/C endpoint: mean survival time, dose: 400.0 mg/kg/injection, schedule: Q04DX003 (ip), vehicle: saline",6 of 6
CCOc1ccc(-n2c(-c3ccc(Br)cc3)csc2=NC(=O)c2ccccc2F)cc1,survivor count,"T/C endpoint: mean survival time, dose: 50.0 mg/kg/injection, schedule: Q01DX009 (ip), vehicle: saline with Tween-80",3 of 3
same,T/C,[5],87 (2×) and 90 % of control
same,survivor count,[5],6 of 6
same,survivor count,[9],6 of 6
same,survivor count,[7],4 of 6
same,survivor count,[1],6 of 6
CC(C)C(=O)OC1(C(C)c2ccccc2)C(=O)NC(=O)NC1=O (stereo unspecified),survivor count,"T/C endpoint: mean survival time, dose: 25.0 mg/kg/injection, schedule: Q01DX009 (ip), vehicle: saline with Tween-80",3 of 6
same,survivor count,[4],0 of 3
same,survivor count,"T/C endpoint: mean survival time, dose: 100.0 mg/kg/injection, schedule: Q04DX002 (ip), vehicle: saline with Tween-80",0 of 3
